These are yes or no findings as the source states them, for the method shown. Binding seen in cells or lysates may run through a third protein. Some results given as binding are weak or reduced against the parent protein; the word gives no strength. For some assays here: Tags and fused reporters may be left off the sequences shown.
Key:
HA-AURKB (human) = HA-AURKB (human) (UniProt Q96GD4); assay: co-IP; PC-3U cells transiently transfected with HA-AURKB and GFP-APPL1 domains, synchronized; immunoprecipitation with an HA antibody, immunoblotting with a GFP antibody
[1] = molecular target: Aurora kinase B (human (endogenous in PC-3U and in patient tissue)) (UniProt Q96GD4); assay: proximity ligation; in situ PLA, brightfield, on prostate cancer tissue microarrays with antibodies against AURKB and TβRI
[2] = molecular target: Aurora kinase B (human (endogenous in PC-3U and in patient tissue)) (UniProt Q96GD4); assay: co-IP; lysates of synchronized PC-3U cells, endogenous proteins; immunoprecipitation with an AURKB antibody, immunoblotting for TβRI, APPL1 and TRAF6

Protein sequences, listed by entry. Tags and fused reporters are not part of them.
UniProt Q96GD4: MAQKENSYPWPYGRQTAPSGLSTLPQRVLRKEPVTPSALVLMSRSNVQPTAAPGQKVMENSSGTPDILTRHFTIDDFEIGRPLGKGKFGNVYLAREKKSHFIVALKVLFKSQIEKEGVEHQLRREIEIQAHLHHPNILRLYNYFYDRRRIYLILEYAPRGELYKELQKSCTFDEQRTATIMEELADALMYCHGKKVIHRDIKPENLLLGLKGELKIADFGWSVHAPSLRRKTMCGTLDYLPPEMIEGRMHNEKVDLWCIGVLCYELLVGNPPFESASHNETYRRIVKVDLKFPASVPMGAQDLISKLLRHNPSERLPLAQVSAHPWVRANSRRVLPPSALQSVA

Row | Binder | binding (HA-AURKB (human)) | binding [1] | binding [2]
1 | GFP-APPL1 BAR domain (domain or fragment, UniProt Q9UKG1 3-268) GIDKLPIEETLEDSPQTRSLLGVFEEDATAISNYMNQLYQAMHRIYDAQNELSAATHLTSKLLKEYEKQRFPLGGDDEVMSSTLQQFSKVIDELSSCHAVLSTQLADAMMFPITQFKERDLKEILTLKEVFQIASNDHDAAINRYSRLSKKRENDKVKYEVTEDVYTSRKKQHQTMMHYFCALNTLQYKKKIALLEPLLGYMQAQISFFKMGSENLNEQLEEFLANIGTSVQNVRREMDSDIETMQQTIEDLEVASDPLYVPDPDP | binds |  | 
2 | TGFβ type I receptor (receptor, UniProt P36897 34-503) LQCFCHLCTKDNFTCVTDGLCFVSVTETTDKVIHNSMCIAEIDLIPRDRPFVCAPSSKTGSVTTTYCCNQDHCNKIELPTTVKSSPGLGPVELAAVIAGPVCFVCISLMLMVYICHNRTVIHHRVPNEEDPSLDRPFISEGTTLKDLIYDMTTSGSGSGLPLLVQRTIARTIVLQESIGKGRFGEVWRGKWRGEEVAVKIFSSREERSWFREAEIYQTVMLRHENILGFIAADNKDNGTWTQLWLVSDYHEHGSLFDYLNRYTVTVEGMIKLALSTASGLAHLHMEIVGTQGKPAIAHRDLKSKNILVKKNGTCCIADLGLAVRHDSATDTIDIAPNHRVGTKRYMAPEVLDDSINMKHFESFKRADIYAMGLVFWEIARRCSIGGIHEDYQLPYYDLVPSDPSVEEMRKVVCEQKLRPNIPNRWQSCEALRVMAKIMRECWYANGAARLTALRIKKTLSQLSQQEGIKM |  | binds | binds
3 | GFP-APPL1 PH domain (domain or fragment, UniProt Q9UKG1 277-375) LTRKAGYLNARNKTGLVSSTWDRQFYFTQGGNLMSQARGDVAGGLAMDIDNCSVMAVDCEDRRYCFQITSFDGKKSSILQAESKKDHEEWICTINNISK | binds |  | 
4 | Adaptor Protein, Phosphotyrosine Interacting with PH Domain and Leucine Zipper 1 (protein, UniProt Q9UKG1 1-709) MPGIDKLPIEETLEDSPQTRSLLGVFEEDATAISNYMNQLYQAMHRIYDAQNELSAATHLTSKLLKEYEKQRFPLGGDDEVMSSTLQQFSKVIDELSSCHAVLSTQLADAMMFPITQFKERDLKEILTLKEVFQIASNDHDAAINRYSRLSKKRENDKVKYEVTEDVYTSRKKQHQTMMHYFCALNTLQYKKKIALLEPLLGYMQAQISFFKMGSENLNEQLEEFLANIGTSVQNVRREMDSDIETMQQTIEDLEVASDPLYVPDPDPTKFPVNRNLTRKAGYLNARNKTGLVSSTWDRQFYFTQGGNLMSQARGDVAGGLAMDIDNCSVMAVDCEDRRYCFQITSFDGKKSSILQAESKKDHEEWICTINNISKQIYLSENPEETAARVNQSALEAVTPSPSFQQRHESLRPAAGQSRPPTARTSSSGSLGSESTNLAALSLDSLVAPDTPIQFDIISPVCEDQPGQAKAFGQGGRRTNPFGESGGSTKSETEDSILHQLFIVRFLGSMEVKSDDHPDVVYETMRQILAARAIHNIFRMTESHLLVTCDCLKLIDPQTQVTRLTFPLPCVVLYATHQENKRLFGFVLRTSSGRSESNLSSVCYIFESNNEGEKICDSVGLAKQIALHAELDRRASEKQKEIERVKEKQQKELNKQKQIEKDLEEQSRLIAASSRPNQASSEGQFVVLSSSQSEESDLGEGGKKRESEA |  |  | binds
